Reference: US20060034848A1, “Methods and compositions for treating Alzheimer's disease” (priority 2003, published 2006)
No constants are given. Whether binding was seen depends on the method and setting. For part of these data: Binding seen in cells or lysates may run through a third protein. Some binding calls cover weakened binding; strength is not graded here.

Protein sequences, listed by entry. Tags and fused reporters are not part of them. Lines headed by an entry give the natural chain unless they say otherwise; changes in a name come on top. Residues count along the entry.
UniProt P56817, residues 46-501: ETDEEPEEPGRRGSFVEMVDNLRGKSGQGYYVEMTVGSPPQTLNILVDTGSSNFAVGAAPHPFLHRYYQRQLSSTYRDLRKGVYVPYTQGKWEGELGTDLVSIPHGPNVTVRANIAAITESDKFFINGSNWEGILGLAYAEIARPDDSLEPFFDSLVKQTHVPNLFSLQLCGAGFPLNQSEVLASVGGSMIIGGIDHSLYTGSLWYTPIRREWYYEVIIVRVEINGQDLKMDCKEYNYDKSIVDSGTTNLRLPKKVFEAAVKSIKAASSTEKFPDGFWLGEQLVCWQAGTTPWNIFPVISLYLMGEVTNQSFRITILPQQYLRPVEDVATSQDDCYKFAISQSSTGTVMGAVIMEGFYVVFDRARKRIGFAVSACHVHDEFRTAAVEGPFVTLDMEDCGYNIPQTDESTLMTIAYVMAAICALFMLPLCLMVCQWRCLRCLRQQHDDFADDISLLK
UniProt Q91ZX7, residues 20-4545: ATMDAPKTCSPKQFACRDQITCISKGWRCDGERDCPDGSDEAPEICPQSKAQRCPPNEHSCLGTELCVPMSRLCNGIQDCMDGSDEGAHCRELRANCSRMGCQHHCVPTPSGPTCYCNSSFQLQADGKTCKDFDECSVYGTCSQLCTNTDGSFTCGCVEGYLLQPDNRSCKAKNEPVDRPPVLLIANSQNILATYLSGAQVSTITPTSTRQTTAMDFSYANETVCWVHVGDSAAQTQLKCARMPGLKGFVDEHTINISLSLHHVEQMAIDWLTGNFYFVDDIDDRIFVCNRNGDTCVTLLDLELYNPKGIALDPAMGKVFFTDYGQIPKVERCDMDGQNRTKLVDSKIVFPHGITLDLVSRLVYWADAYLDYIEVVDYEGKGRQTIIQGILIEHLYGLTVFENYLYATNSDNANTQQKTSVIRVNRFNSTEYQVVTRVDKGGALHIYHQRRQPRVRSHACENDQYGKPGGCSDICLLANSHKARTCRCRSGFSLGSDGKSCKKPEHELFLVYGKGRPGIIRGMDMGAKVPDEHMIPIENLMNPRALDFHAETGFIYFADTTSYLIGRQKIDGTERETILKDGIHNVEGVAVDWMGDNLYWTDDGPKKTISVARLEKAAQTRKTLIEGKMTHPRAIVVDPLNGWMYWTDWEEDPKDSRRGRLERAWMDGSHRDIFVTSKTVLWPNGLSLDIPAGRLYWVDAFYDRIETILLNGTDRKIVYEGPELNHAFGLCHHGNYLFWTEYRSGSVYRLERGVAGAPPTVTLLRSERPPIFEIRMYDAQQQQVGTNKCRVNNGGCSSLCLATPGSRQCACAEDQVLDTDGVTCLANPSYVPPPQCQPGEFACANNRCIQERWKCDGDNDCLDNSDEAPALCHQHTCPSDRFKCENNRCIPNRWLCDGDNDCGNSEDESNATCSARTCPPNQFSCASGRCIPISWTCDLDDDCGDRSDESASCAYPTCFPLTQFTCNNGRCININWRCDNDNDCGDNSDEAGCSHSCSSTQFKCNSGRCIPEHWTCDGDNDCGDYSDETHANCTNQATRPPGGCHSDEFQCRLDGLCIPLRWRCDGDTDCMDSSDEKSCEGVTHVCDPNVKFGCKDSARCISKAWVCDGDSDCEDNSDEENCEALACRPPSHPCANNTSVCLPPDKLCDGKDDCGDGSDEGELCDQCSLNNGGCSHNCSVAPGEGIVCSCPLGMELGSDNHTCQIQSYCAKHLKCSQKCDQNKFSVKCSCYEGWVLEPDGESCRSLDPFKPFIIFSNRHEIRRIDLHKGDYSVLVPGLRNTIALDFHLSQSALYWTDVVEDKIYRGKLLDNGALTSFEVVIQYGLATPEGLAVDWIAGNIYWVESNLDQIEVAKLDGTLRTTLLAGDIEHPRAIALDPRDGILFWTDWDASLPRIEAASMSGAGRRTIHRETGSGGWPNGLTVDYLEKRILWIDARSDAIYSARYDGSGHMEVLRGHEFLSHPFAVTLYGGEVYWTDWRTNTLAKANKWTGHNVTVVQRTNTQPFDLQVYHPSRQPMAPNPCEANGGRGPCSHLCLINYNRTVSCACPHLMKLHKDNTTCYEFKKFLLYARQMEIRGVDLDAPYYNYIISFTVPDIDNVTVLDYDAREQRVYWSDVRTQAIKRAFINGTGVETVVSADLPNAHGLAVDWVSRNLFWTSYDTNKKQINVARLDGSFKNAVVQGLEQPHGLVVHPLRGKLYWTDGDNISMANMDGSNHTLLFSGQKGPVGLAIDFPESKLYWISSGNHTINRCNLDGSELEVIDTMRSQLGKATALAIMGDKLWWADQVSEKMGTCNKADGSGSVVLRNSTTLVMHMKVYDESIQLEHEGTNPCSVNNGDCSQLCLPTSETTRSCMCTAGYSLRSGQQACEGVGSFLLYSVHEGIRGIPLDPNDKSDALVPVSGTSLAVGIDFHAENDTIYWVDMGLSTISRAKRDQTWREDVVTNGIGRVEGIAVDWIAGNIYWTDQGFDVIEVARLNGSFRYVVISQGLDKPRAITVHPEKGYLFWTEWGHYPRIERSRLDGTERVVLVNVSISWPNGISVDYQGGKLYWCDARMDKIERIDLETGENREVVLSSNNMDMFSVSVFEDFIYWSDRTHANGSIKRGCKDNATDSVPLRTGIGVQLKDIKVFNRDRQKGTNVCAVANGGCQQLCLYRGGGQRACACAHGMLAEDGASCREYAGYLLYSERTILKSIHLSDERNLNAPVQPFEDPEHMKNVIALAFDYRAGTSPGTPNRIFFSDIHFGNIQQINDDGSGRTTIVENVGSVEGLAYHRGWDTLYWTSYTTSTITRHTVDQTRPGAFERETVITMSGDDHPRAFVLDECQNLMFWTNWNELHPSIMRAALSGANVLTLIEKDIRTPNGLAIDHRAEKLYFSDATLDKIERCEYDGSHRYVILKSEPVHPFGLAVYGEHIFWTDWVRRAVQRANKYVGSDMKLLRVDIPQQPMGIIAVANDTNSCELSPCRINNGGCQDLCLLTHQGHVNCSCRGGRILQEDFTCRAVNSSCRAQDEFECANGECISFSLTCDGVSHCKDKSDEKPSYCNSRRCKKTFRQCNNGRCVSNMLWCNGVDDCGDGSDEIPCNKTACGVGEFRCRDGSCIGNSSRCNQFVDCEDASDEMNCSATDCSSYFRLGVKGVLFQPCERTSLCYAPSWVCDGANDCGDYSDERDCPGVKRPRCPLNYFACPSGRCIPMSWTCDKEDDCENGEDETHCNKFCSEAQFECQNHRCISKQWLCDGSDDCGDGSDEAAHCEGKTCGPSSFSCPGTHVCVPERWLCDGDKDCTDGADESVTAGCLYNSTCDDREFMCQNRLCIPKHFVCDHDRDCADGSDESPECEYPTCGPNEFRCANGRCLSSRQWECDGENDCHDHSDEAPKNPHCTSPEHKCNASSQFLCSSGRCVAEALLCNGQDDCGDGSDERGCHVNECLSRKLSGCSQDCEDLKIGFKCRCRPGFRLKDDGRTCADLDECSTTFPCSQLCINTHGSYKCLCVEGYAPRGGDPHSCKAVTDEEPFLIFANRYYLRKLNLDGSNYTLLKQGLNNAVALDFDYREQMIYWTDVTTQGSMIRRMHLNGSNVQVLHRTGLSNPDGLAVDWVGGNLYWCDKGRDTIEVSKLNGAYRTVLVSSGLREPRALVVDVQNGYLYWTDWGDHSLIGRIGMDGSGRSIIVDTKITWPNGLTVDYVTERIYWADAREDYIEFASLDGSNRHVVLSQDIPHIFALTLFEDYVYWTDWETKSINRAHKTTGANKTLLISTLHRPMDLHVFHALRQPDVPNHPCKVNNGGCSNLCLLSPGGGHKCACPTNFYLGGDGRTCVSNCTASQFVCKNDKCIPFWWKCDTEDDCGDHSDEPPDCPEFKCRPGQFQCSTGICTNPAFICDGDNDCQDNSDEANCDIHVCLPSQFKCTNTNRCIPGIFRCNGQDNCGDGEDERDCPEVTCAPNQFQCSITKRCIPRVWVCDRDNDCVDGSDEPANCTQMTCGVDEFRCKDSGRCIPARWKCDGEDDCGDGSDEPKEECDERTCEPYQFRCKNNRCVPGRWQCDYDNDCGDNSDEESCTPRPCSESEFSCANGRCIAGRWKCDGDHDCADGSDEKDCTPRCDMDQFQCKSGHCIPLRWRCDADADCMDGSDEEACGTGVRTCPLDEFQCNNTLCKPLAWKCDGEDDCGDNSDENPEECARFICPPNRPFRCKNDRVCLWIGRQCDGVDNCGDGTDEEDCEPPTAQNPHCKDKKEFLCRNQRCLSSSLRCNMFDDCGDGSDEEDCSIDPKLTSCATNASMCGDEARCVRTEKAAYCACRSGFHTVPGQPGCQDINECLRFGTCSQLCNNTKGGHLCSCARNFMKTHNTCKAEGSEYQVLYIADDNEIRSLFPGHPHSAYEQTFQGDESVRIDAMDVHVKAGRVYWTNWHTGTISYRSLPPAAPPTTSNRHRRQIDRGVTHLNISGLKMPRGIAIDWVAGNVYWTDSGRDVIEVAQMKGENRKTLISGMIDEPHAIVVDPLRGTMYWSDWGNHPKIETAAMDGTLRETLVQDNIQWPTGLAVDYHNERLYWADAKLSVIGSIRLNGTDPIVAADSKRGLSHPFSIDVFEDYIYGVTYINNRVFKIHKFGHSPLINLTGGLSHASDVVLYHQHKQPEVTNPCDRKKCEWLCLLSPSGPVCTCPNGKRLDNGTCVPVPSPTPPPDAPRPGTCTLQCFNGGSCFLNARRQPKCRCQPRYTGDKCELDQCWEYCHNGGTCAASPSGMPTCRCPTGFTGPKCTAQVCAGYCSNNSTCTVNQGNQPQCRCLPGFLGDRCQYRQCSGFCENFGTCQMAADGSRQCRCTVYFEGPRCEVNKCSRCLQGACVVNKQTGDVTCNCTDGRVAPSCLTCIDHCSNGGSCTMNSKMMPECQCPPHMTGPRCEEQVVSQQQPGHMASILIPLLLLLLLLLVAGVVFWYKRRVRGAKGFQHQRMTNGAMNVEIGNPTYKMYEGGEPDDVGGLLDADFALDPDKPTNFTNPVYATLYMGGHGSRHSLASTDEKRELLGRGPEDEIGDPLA
endogenous LRP (light chain, approx. 85 kDa) of human brain tissue (Q07954, residues 3944-4544): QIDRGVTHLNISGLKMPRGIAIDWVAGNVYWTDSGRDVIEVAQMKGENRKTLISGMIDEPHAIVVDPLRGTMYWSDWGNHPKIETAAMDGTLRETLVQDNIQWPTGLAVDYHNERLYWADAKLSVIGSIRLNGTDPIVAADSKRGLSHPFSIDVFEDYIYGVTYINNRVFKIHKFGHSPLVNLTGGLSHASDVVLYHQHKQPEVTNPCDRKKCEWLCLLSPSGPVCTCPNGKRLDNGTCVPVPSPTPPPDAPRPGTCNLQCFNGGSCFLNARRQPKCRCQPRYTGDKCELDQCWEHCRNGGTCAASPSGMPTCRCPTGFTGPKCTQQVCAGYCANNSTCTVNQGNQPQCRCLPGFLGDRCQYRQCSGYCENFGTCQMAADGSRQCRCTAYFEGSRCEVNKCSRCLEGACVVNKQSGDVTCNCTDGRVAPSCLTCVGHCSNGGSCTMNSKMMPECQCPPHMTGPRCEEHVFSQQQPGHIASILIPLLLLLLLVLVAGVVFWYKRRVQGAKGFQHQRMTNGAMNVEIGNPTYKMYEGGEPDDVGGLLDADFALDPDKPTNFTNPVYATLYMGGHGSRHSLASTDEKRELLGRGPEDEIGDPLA
UniProt P56818, residues 46-501: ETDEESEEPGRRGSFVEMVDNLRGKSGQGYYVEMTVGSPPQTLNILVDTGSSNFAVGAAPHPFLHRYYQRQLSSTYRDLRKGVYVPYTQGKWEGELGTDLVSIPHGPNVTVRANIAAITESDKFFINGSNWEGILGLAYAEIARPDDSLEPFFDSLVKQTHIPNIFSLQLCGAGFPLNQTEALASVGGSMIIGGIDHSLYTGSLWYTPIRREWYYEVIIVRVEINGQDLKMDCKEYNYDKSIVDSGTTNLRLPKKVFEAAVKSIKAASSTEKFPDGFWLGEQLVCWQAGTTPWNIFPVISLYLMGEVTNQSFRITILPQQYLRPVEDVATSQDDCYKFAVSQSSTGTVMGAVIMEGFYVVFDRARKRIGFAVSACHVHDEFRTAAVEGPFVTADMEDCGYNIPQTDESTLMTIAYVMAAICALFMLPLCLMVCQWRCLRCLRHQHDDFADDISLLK

Legend:
[1] = molecular target: endogenous BACE (human: human brain tissue; H4 cells) (human) (UniProt P56817); experiment: co-immunoprecipitation, anti-myc pull-down and anti-BACE blot, H4 cells (FIG. 6B)
[2] = molecular target: endogenous BACE (human: human brain tissue; H4 cells) (human) (UniProt P56817); experiment: co-immunoprecipitation, anti-myc pull-down and anti-BACE blot, H4 cells
[3] = molecular target: endogenous LRP of mouse N2a cells and mouse primary cortical neurons (mouse) (UniProt Q91ZX7); experiment: FLIM/FRET in untransfected N2a cells and mouse primary cortical neurons
[4] = molecular target: endogenous LRP (light chain, approx. 85 kDa) of human brain tissue (human) (UniProt Q07954); experiment: co-immunoprecipitation from human brain extracts, anti-BACE-CT pull-down and 11H4 blot (FIG. 6C)
[5] = molecular target: endogenous LRP (light chain, approx. 85 kDa) of human brain tissue (human) (UniProt Q07954); experiment: co-immunoprecipitation from human brain tissue, anti-BACE pull-down and blot with an antibody to the LRP light chain
[6] = molecular target: endogenous LRP (light chain, approx. 85 kDa) of human brain tissue (human) (UniProt Q07954); experiment: co-immunoprecipitation from human brain homogenate

Substance: mLRP1-myc (mini-receptor: N-terminal cluster of ligand binding repeats fused to the light chain of LRP, myc at the C-terminus) (from UniProt Q07954 20-191; Q07954 3863-4544)
- binding [1]: binds
- binding [2]: binds

Substance: endogenous BACE of mouse N2a cells and mouse primary cortical neurons (from UniProt P56818 46-501) (enzyme)
- binding [3]: binds

Substance: endogenous BACE (human: human brain tissue; H4 cells) (from UniProt P56817 46-501) (enzyme)
- binding [4]: binds
- binding [5]: binds
- binding [6]: binds
